The target in the assay is RCP (bait of the mass spectrometry proteomic screen in H1299 cells) (UniProt Q6WKZ4). The experiment in a line: affinity purification with mass spectrometry; mass spectrometry proteomic screen for RCP interaction partners in H1299 cells (mutant p53 R273H and empty vector); performed previously (ref. 21).

The chains behind the UniProt entries cited, without tags or fusion partners. Where a name states a change or a piece, a line headed by the entry shows the natural chain unless it says otherwise.
UniProt Q6WKZ4: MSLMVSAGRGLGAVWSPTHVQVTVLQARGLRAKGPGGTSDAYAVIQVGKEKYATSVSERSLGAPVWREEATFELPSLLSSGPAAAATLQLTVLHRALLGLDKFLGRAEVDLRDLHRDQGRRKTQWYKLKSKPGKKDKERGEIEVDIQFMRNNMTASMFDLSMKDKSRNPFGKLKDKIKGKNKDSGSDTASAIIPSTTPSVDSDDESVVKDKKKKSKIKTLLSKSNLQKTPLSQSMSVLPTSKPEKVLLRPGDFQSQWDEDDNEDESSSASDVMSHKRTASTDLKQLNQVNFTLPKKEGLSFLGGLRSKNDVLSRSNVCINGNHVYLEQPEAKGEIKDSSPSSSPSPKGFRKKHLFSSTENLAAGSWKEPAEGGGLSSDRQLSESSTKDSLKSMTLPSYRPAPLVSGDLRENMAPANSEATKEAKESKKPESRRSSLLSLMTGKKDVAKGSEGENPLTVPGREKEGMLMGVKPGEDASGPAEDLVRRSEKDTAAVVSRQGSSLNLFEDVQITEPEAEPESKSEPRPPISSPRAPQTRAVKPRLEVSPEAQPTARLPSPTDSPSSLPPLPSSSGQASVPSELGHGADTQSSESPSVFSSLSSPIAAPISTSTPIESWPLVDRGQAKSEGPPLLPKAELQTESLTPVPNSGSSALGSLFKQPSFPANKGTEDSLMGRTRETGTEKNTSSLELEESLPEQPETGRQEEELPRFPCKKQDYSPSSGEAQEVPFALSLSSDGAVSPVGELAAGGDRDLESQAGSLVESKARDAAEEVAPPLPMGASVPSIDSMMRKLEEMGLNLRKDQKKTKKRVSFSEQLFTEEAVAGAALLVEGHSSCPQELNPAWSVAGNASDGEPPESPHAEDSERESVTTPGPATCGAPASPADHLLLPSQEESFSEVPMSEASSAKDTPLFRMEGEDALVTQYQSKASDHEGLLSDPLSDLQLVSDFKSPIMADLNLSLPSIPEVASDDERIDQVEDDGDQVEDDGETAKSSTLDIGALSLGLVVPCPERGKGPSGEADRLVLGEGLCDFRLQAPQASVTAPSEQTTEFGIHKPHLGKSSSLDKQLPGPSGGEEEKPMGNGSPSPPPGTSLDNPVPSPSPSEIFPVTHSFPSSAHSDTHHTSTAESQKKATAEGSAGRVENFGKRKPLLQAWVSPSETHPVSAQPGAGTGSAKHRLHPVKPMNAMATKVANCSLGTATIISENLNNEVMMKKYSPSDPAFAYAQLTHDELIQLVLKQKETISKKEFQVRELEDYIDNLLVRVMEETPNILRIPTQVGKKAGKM
UniProt P08183: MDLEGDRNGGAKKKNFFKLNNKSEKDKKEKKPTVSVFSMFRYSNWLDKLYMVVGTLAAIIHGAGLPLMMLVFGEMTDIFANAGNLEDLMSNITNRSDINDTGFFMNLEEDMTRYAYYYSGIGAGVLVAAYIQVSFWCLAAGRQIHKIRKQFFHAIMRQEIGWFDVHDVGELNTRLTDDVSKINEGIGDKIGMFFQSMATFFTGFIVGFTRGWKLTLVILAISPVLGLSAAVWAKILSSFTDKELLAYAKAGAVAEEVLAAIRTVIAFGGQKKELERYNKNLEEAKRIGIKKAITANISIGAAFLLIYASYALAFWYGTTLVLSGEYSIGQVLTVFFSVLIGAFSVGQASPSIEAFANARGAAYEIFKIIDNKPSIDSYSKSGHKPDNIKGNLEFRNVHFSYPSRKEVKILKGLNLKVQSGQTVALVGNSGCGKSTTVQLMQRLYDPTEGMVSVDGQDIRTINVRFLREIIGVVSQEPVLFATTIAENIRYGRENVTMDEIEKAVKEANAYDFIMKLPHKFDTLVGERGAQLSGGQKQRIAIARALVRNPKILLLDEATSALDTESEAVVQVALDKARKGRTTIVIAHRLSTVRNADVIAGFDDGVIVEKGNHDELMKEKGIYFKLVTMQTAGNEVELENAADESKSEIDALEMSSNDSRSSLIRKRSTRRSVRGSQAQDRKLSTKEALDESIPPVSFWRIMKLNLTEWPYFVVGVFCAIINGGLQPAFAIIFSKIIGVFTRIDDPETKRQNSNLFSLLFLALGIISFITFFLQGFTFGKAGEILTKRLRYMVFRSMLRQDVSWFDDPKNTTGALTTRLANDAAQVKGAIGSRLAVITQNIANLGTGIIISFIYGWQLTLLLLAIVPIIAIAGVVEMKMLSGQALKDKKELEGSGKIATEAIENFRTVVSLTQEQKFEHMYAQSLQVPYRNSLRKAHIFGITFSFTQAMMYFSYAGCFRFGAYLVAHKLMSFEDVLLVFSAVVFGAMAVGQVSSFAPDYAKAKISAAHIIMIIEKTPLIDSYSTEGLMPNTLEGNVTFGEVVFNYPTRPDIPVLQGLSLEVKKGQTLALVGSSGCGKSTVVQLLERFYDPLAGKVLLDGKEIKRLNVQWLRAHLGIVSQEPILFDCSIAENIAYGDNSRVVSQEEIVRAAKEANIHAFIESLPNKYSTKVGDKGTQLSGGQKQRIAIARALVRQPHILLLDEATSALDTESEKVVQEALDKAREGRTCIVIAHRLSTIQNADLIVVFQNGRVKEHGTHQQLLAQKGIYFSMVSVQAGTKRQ

For 1 substance, binding results are on record in publication PMC7904762.

No constants are given. Whether binding was seen depends on the method and setting. In cells and extracts the contact can be indirect. Here binding means that the protein was enriched with, or labelled near, the bait; the list need not be complete.

As for “P-glycoprotein (from UniProt P08183 1-1280)”, the binding result is reported as “binds”.
